Results are given in words; binding and its absence hold for the method and conditions named. Binding seen in cells or lysates may run through a third protein. Some entries that bind do so weakly or less than the wild type.
Target: T1, Glycerol-3-phosphate acyltransferase 3 (human (endogenous in HCT-116)) (UniProt Q53EU6)
T1 sequence: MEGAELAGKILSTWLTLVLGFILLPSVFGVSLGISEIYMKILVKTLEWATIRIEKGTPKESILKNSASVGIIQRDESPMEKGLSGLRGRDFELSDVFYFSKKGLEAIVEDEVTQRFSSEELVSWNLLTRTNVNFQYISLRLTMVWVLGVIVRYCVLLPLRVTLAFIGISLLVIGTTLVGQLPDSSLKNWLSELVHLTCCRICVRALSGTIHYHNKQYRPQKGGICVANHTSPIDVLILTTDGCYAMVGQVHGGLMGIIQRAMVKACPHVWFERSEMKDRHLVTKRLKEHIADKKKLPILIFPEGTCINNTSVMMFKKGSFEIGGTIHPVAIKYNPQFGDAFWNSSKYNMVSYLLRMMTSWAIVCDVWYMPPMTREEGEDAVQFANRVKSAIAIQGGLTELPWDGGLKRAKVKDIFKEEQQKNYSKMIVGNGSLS
Assay: co-IP; endogenous proteins; cells lysed with NP-40 lysis buffer; Protein A&G magnetic beads; anti-rabbit and mouse IgG as negative controls; immunoblot

Protein sequences, listed by entry. Tags and fused reporters are not part of them.
UniProt Q92993: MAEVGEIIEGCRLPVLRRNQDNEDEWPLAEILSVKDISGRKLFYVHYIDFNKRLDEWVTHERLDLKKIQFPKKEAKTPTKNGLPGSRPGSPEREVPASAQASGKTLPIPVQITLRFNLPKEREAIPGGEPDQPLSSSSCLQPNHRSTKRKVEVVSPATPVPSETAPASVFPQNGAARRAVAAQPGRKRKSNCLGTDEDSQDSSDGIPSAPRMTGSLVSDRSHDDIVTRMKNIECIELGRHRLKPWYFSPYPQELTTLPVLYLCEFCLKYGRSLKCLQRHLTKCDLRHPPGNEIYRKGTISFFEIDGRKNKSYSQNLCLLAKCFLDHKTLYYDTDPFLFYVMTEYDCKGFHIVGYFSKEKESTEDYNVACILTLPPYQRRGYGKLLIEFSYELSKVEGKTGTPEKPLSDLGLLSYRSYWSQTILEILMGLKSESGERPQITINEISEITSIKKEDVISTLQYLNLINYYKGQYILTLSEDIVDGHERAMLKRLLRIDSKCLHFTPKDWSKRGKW

TIP60 (from UniProt Q92993 1-513) (enzyme)
binding: binds

From PMC10857777
